Data: patent US20260265330 (published 2026)

Assay: general procedure: peptide synthesis; pre-activated esters SEM100A-D, SEM120A-D with DIPEA
Settings: for step yield: molar yield

For Semaglutide, the “crude HPLC purity” value (late stage modification step, HPLC) was 87.30%, the step yield (late stage modification step) was 93.50% and the “final HPLC purity” value (purification step, HPLC, run 1) was 99.62%. For the same substance, the “final HPLC purity” value (purification step, HPLC, run 2) was 92.26%, the “final HPLC purity” value (purification step, HPLC, run 3) was 99.55% and the “final HPLC purity” value (purification step, HPLC, run 4) was 99.58%. For the same substance, the “final HPLC purity” value (purification step, HPLC, run 5) was 99.55%, the “final HPLC purity” value (purification step, HPLC, run 6) was 99.31% and the “final HPLC purity” value (purification step, HPLC, run 7) was 99.31%. For the same substance, the “final HPLC purity” value (purification step, HPLC, run 8) was 99.26%, the “final HPLC purity” value (purification step, HPLC, run 9) was 95.35% and the “final HPLC purity” value (purification step, HPLC, run 10) was 95.95%. For the same substance, the step yield (purification step, run 1) was 79.15%, the step yield (purification step, run 2) was 78.02% and the step yield (purification step, run 3) was 88.02%. For the same substance, the step yield (purification step, run 4) was 84.30%, the step yield (purification step, run 5) was 82.58% and the step yield (purification step, run 6) was 83.50%. For the same substance, the step yield (purification step, run 7) was 81.50%, the step yield (purification step, run 8) was 80.72% and the step yield (purification step, run 9) was 82.71%. For the same substance, the step yield (purification step, run 10) was 78.02%.
